Measurements from “University of Dundee, Small-Polar-MMV Screening Library” (2021), ChEMBL document CHEMBL3988442.

By UniProt entry, the sequences of proteins in these tests, tags left out. Residues count along the entry.
UniProt A4I591, 1-473: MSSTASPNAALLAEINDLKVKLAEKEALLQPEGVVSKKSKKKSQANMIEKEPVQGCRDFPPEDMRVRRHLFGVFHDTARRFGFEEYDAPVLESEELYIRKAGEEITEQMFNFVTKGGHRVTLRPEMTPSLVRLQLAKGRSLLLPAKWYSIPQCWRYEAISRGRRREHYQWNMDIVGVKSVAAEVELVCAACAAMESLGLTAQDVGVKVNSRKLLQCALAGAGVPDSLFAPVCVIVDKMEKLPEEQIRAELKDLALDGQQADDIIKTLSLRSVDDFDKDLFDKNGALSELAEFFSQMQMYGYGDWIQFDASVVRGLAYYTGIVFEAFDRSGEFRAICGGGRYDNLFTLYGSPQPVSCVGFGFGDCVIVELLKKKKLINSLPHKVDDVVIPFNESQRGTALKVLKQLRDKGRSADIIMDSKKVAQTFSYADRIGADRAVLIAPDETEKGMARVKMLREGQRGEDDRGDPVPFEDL
UniProt Q4DA54, 1-478: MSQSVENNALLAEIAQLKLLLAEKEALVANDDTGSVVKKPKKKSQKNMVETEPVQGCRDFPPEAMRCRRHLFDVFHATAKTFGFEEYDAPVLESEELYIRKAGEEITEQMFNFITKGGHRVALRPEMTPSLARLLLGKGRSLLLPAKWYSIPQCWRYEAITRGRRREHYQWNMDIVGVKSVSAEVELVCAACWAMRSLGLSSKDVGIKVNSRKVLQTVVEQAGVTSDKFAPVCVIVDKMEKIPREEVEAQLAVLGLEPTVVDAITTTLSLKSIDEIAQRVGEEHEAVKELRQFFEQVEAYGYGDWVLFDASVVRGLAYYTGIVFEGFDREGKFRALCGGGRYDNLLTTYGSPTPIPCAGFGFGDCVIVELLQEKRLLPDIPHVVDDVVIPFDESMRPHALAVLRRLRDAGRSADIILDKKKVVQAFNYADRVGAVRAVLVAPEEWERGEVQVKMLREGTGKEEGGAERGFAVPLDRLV

LiHisRS: 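Histidine-tRNA ligase, Leishmania infantum (UniProt A4I591). Enzyme assay of histidyl-tRNA synthetase; the read-out is not stated. Tested at 30 µM. Higher reads as stronger inhibition (inferred: compounds with an IC50 in retests scored well above the rest). The assay is labelled LdHisRS but filed under L. infantum. Of about 69,000 compounds tested this way, about 410 (0.6%) reached 50% or more in at least one test.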
TcHisRS: 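Histidine-tRNA ligase, Trypanosoma cruzi CL Brener (UniProt Q4DA54). Enzyme assay of histidyl-tRNA synthetase; the read-out is not stated. Concentration: 30 µM. Higher reads as stronger inhibition (inferred: compounds with an IC50 in retests scored well above the rest). Of about 69,000 compounds tested this way, about 31 (0.045%) reached 50% or more in at least one test.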

Values are the deposited “Percent Effect”, in %. How 0% and 100% were set is not recorded. Most values in the screen are low, and negative values occur. This is an unselected part of the compounds tested.

structure | LiHisRS | TcHisRS
Cc1nccn1CCCNC(=O)C1CCCCN1Cc1ccncc1 (centres unmarked) | 8.571% | 7.792%
CCOC(=O)C1CCN(C(=O)c2cc(Br)ccc2-n2cnnn2)CC1 | 19.57% | 9%
Cc1cc(NC(C)c2csc(C)n2)n2nc(C)c(C)c2n1 (centres unmarked) | 15% | 4.348%
CCn1nc(C)c2ncnc(NCCn3cccn3)c21 | 12.39% | 8.772%
CCOC(C)c1noc(CN2CCN(Cc3ccno3)CC2)n1 (centres unmarked) | 17.17% | 9.677%
O=C1CCCN1c1cccc(N2CCC(NCCc3cscn3)CC2)c1 | 13.92% | 3.017%
Cn1nccc1-c1nnn2c1COCC(CNC1CCOCC1)C2 (centres unmarked) | 8.182% | 0%
COc1cc(CNCc2c(C(C)C)nn(C)c2N(C)C)ccn1 | 42.4% | 1.901%
Cc1nc(CCNC(=O)NCC(O)c2cccc(Cl)c2)cs1 (centres unmarked) | 20.55% | 0.9852%
CC(C)CN1CCCC1c1ccc(C(=O)Nc2ccc3[nH]nnc3c2)s1 (centres unmarked) | -4% | 5.202%
CCn1cnnc1CNC(=O)NC(c1ccccc1)C1CCCC1 (centres unmarked) | 15% | 6.818%
COc1ccc(C(=O)NS(=O)(=O)c2cncc(Br)c2)cc1OC | 9.615% | 6.667%
O=C(CCc1ccccn1)N1CCCN(C(=O)CC2CCCC2)CC1 | 2.655% | 4.373%
COCCN1CCCC12CCCN(c1ncccn1)C2 (centres unmarked) | 6.195% | 2.151%
CC(=O)N1CCN(c2cnnc(N3CCCC3)c2)CC1 | 0% | 1.212%
CC(Cc1ccco1)NC(=O)Nc1ccc(N2CCCC2)nc1 (centres unmarked) | 22.02% | 6.471%
CCSc1ccc(C(=O)N2CCC3(CC2)[C@H](O)C[C@@H]3O)s1 | 1.399% | 0.4975%
CN(CCOc1ccc(C#N)cc1)CC1CC1 | 3.333% | 1.739%
C=C(C)COc1cccc(C(=O)N2CCC(O)(c3ccccc3)CC2)c1 | -2.564% | -2.299%
COC(=O)c1ccc(CN2CCC(c3n[nH]c(C)n3)CC2)s1 | 13.83% | 3.03%
OC(CNCCn1cccn1)c1cccc(F)c1 (centres unmarked) | 10.34% | -1.13%
Cc1c(C(=O)O)cnn1-c1ccc(-c2nc(C(C)C)no2)cn1 | 18.68% | 4.124%
CC(=O)Nc1nc(CN2CCOC(Cn3cc(C)cn3)C2)cs1 (centres unmarked) | 10.67% | -1.887%
COc1ccc(C(=O)CN(C2=NCCCCC2)c2ccccc2)cc1 | 7.895% | 8.537%
COCC(O)CNc1cncc(Br)c1 (centres unmarked) | 60.27% | 0%
COc1ccccc1S(=O)(=O)N1CCN(C)[C@@H]2CS(=O)(=O)C[C@@H]21 | -6.667% | 0.6061%
Cc1cnccc1-c1cnn(CCNC(=O)c2cccnc2)c1C1CC1 | 8.511% | 6.391%
CCc1ccc2nc(C)cc(C(=O)NC3CCNC3=O)c2c1 (centres unmarked) | 7.843% | 9.877%
COc1nc2c(cc1C(=O)N1C[C@H](N)C[C@H]1C(=O)NC(C)C)CCC2 | 20.19% | 0.813%
OCC1CCCN1c1cc(NCCc2ccsc2)ncn1 (centres unmarked) | 22.89% | 7.317%
Fc1cnc(N2CCOCC3(CCCN(c4cnccn4)C3)C2)nc1 (centres unmarked) | 10.53% | 4.598%
CC(=O)N1CCc2nnc(C3CCCCN3CC3CCCCC3)n2CC1 (centres unmarked) | 10.34% | 6.084%
N#Cc1ccc(N2CCC(OC3CCOCC3)CC2)cc1Cl | 14% | 6.024%
CCC1c2cccn2CCN1C(=O)c1cc(OC)nc(OC)n1 (centres unmarked) | -1.235% | -4.911%
Cc1cccc(C(=O)N2CCN(c3ccccc3F)CC2)n1 | 12.9% | 1.02%
CCn1cc(NC(=O)NCCN2CCCCCC2=O)cn1 | 12.39% | 3.571%
Cc1nc(C(NS(=O)(=O)N(C)C)c2ccccc2F)no1 (centres unmarked) | 11.76% | 7.407%
CC(CN1CCCC1=O)NC(=O)c1ccc(-c2ccco2)[nH]c1=O (centres unmarked) | 29.63% | 1.84%
CNC(=O)[C@H]1C[C@@H]2CCN(CCc3ccccc3)C[C@@H]2O1 | 9% | 3.061%
Cc1ccccc1C(C)NC(=O)CSCC#N (centres unmarked) | 11.4% | 3.468%
Cc1cnn(CC2CCCN2Cc2nccn2CC(F)(F)F)c1 (centres unmarked) | 10.26% | 4.843%
Cc1ccc(C(=O)N(C)Cc2ccc3c(c2)OCO3)c(=O)[nH]1 | 12.5% | 4.142%
CCc1ccc(C2CC(=O)Nc3cc(OC)c(NS(C)(=O)=O)cc32)o1 (centres unmarked) | 20.21% | 7.071%
O=S(=O)(CCNCc1cc(O)c2cc(F)ccc2n1)N1CCCC1 | -2.198% | 1.807%
CCSCCNC(=O)C(c1cccc(C)c1)N(C)C (centres unmarked) | 13.46% | -2.5%
CC(C)c1nnc(NC(=O)NCc2cccnc2NCCN(C)C)s1 | 2.521% | 3.922%
Cc1cc(CNC(=O)NC(C)(CO)C2CC2)c(C)s1 (centres unmarked) | 6.452% | 0.5181%
Cc1ccc(Cn2nc(C)c3c(C(=O)O)c(Cl)c(C4CC4)nc32)cc1 | 16.81% | -11.06%
N#Cc1cccnc1NCCNC(=O)N1CCSCC1 | -1.37% | -1.97%
CCOCc1cnc2n1CCN(C(=O)C1=CCCC1)C2C (centres unmarked) | 23.08% | 10.98%
CN(C)S(=O)(=O)N1CCC(c2ccncn2)CC1 | 6.207% | 7.605%
O=S(=O)(N1CCCC1)N1CCc2sccc2C1 | 19.15% | 13.29%
CC(C)NC(=O)c1sccc1N(C)S(=O)(=O)c1ccc(Cl)cc1 | 20% | 2.174%
CN(C)C(=O)[C@@H]1C[C@@H]2CCN(C3CCOCC3)C[C@@H]2O1 | 13.89% | 6.542%
COCCC1CN(c2nc(-c3ccccc3)nc3c2CCNC3)CCO1 (centres unmarked) | 37.1% | 5.102%
O=C(Nc1nncs1)NC1CCc2ccccc21 (centres unmarked) | 3.81% | 3.306%
NC(=O)c1ccc(CN2CCCC(O)C2)cc1 (centres unmarked) | 15.38% | 2.674%
COC(=O)c1ccc(NC(=O)CCc2ccncc2)c(C)c1 | 12.9% | 6.173%
O=C(CN1CCN(c2ccccc2F)CC1)Nc1ccc(Cl)cn1 | 24% | -3.804%
O=C(Nc1ccccc1)[C@H]1CN2CC[C@H]1C[C@@H]2Cn1cc(CCO)nn1 | 5.556% | 8.911%
CCn1c(C)nnc1SCCNC(=O)c1cccc2ccnn12 | 2.564% | -5.747%
O=C1CC2(CCCC2)CC(=O)N1Cc1nc2ncccn2n1 | 9.735% | 4%

The last 7 entries again:

{"structure": "O=C(Nc1nncs1)NC1CCc2ccccc21", "stereo": "centres unmarked", "LiHisRS": 3.81, "TcHisRS": 3.306}
{"structure": "NC(=O)c1ccc(CN2CCCC(O)C2)cc1", "stereo": "centres unmarked", "LiHisRS": 15.38, "TcHisRS": 2.674}
{"structure": "COC(=O)c1ccc(NC(=O)CCc2ccncc2)c(C)c1", "LiHisRS": 12.9, "TcHisRS": 6.173}
{"structure": "O=C(CN1CCN(c2ccccc2F)CC1)Nc1ccc(Cl)cn1", "LiHisRS": 24, "TcHisRS": -3.804}
{"structure": "O=C(Nc1ccccc1)[C@H]1CN2CC[C@H]1C[C@@H]2Cn1cc(CCO)nn1", "LiHisRS": 5.556, "TcHisRS": 8.911}
{"structure": "CCn1c(C)nnc1SCCNC(=O)c1cccc2ccnn12", "LiHisRS": 2.564, "TcHisRS": -5.747}
{"structure": "O=C1CC2(CCCC2)CC(=O)N1Cc1nc2ncccn2n1", "LiHisRS": 9.735, "TcHisRS": 4}